Laboratory results reported in PMC7862700.
This is a selection; strong and weak results do not stand in their true shares. At the low end of the ranking the order means little.

Protein sequences, listed by entry. Tags and fused reporters are not part of them. Lines headed by an entry give the natural chain unless they say otherwise; changes in a name come on top.
UniProt Q9Y603: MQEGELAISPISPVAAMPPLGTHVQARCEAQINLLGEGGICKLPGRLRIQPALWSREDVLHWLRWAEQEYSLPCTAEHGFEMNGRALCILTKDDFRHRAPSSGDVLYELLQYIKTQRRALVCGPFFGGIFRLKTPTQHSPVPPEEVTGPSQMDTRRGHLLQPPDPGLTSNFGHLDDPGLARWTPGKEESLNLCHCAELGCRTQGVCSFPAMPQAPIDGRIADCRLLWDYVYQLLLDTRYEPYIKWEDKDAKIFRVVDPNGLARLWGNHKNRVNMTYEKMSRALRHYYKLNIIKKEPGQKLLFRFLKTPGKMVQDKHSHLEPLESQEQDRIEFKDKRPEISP

molecular target: ETV7 (UniProt Q9Y603); assay: DAPPL (digital affinity profiling via proximity ligation, sequencing); conditions: 10 mM Tris-HCl pH 7.5, 50 mM NaCl, 1 mM DTT, 4% glycerol, room temperature, 30 min; GST-TFs on glutathione beads, 16-mer random dsDNA library, 0.1% …; high values mean tight binding; double strand, one strand shown; scale: fold enrichment (6-mer frequency, TF over GST control)

| Sequence | binding signal |
| --- | --- |
| CATGAT | 1.02 |
| CCTTTT | 1.53 |
| AACTGA | 1.05 |
| GGTTCA | 0.972 |
| TCTAGG | 1.16 |
| TGTCTG | 1.02 |
| TCTGGA | 1 |
| TTCGGT | 1.15 |
| CTACTG | 1.26 |
| TAAAGG | 1.09 |
| TTATTA | 1.11 |
| ATTCCT | 1.39 |
| ATGGCG | 1.01 |
| TCAATG | 0.98 |
| TGACTA | 1.07 |
| TGCTCG | 1.18 |
| TCACAA | 0.971 |
| CCACAA | 0.997 |
| ATGAAC | 1.2 |
| CACGGA | 0.956 |

Given in CSV form: part of the list above.
Sequence,binding signal
CATGAT,1.02
CCTTTT,1.53
AACTGA,1.05
GGTTCA,0.972
TCTAGG,1.16
TGTCTG,1.02
TCTGGA,1
TTCGGT,1.15
CTACTG,1.26
TAAAGG,1.09
TTATTA,1.11

Remaining list, next part

| Sequence | binding signal |
| --- | --- |
| ATATCC | 2.25 |
| GTTCGA | 1.13 |
| CAACAC | 1.13 |
| CTTGTA | 1.17 |
| TACACT | 1.49 |
| TCCCCG | 1.15 |
| GAATGT | 1.13 |
| TAGCTT | 1.16 |
| CATACG | 0.993 |
| CACCAC | 1.04 |
| GCAAAC | 0.909 |
| TGTCCC | 1.46 |
| TCACCC | 1.04 |
| GATCCC | 0.991 |
| ATTACA | 1.08 |
| TAGTGG | 1.17 |
| TAGCGA | 0.953 |
| TATCAC | 1.14 |
| AACCTA | 1.03 |
